According to US20100003740A1, “CHEMICALLY DEFINED CULTURE MEDIUM FOR NEISSERIA” (priority 2006, published 2010):

Tested on: N. gonorrhoeae
Assay: MIC determination by macrobroth dilution in the medium compared with E-test strips on chocolate agar (Example 5, FIG. 6)
Format: cell-based
Conditions: 8 strains of N. gonorrhoeae; susceptible, intermediate or resistant by published breakpoints

O=C(O)c1cn(C2CC2)c2cc(N3CCNCC3)c(F)cc2c1=O [ciprofloxacin]
percentage of strains allocated to same susceptibility category by both methods: 100 percentage
